No constants are given. Whether binding was seen depends on the method and setting. Binding seen in cells or lysates may run through a third protein. Some results given as binding are weak or reduced against the parent protein; the word gives no strength.

The chains behind the UniProt entries cited, without tags or fusion partners.
UniProt P37231: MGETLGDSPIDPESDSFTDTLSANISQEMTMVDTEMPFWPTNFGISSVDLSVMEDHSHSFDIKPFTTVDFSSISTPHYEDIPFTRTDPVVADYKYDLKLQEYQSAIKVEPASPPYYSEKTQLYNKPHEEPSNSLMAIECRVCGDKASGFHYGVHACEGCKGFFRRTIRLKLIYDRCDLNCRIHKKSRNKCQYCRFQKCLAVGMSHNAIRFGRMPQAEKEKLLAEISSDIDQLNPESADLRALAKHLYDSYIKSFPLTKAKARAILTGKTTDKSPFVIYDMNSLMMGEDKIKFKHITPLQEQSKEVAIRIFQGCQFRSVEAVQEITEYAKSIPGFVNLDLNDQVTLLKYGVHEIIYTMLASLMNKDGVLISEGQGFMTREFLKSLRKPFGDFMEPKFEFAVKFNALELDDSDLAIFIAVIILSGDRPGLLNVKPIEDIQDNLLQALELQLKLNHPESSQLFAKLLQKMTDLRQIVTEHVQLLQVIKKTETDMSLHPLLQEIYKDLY

Assay [1] addresses hHNRNPK-Flag (human) (UniProt P61978). Nature of the assay: co-IP; Supplementary Fig. S4A; the sentence does not name the method (co-IP is the only protein-protein method in the methods); which protein was the bait is not told.
For assay [2] the target is unchanged. Briefly: co-IP; 293 cells transfected with the Flag plasmid for 72 h; lysis in 20 mM Tris pH 7.5, 150 mM NaCl, 1% Triton X-100; precleared with protein A/G-agarose; anti-FLAG M2 affinity gel overnight, then protein A/G-agarose at 4 °C for 4 h; western blot. A general note: In western blotting, separated proteins are transferred to a membrane and probed.
In a further assay the target is hPPARγ-Flag (human) (UniProt P37231). Described as above.
Another assay deals with hHSP90AA1-Flag (human) (UniProt P07900). Described as above.

As to “hHSP90AA1-Flag (from UniProt P07900-2 1-854)”, the binding entry with hHNRNPK-Flag (human) [1] is “no binding”.

B1: human period circadian regulator 3 (hPER3) (protein, UniProt P56645 1-1201)
chain: MPRGEAPGPGRRGAKDEALGEESGERWSPEFHLQRKLADSSHSEQQDRNRVSEELIMVVQEMKKYFPSERRNKPSTLDALNYALRCVHSVQANSEFFQILSQNGAPQADVSMYSLEELATIASEHTSKNTDTFVAVFSFLSGRLVHISEQAALILNRKKDVLASSHFVDLLAPQDMRVFYAHTARAQLPFWNNWTQRAARYECAPVKPFFCRIRGGEDRKQEKCHSPFRIIPYLIHVHHPAQPELESEPCCLTVVEKIHSGYEAPRIPVNKRIFTTTHTPGCVFLEVDEKAVPLLGYLPQDLIGTSILSYLHPEDRSLMVAIHQKVLKYAGHPPFEHSPIRFCTQNGDYIILDSSWSSFVNPWSRKISFIIGRHKVRTSPLNEDVFATKIKKMNDNDKDITELQEQIYKLLLQPVHVSVSSGYGSLGSSGSQEQLVSIASSSEASGHRVEETKAEQMTLQQVYASVNKIKNLGQQLYIESMTKSSFKPVTGTRTEPNGGGECKTFTSFHQTLKNNSVYTEPCEDLRNDEHSPSYQQINCIDSVIRYLKSYNIPALKRKCISCTNTTSSSSEEDKQNHKADDVQALQAGLQIPAIPKSEMPTNGRSIDTGGGAPQILSTAMLSLGSGISQCGYSSTIVHVPPPETARDATLFCEPWTLNMQPAPLTSEEFKHVGLTAAVLSAHTQKEEQNYVDKFREKILSSPYSSYLQQESRSKAKYSYFQGDSTSKQTRSAGCRKGKHKRKKLPEPPDSSSSNTGSGPRRGAHQNAQPCCPSAASSPHTSSPTFPPAAMVPSQAPYLVPAFPLPAATSPGREYAAPGTAPEGLHGLPLSEGLQPYPAFPFPYLDTFMTVFLPDPPVCPLLSPSFLPCPFLGATASSAISPSMSSAMSPTLDPPPSVTSQRREEEKWEAQSEGHPFITSRSSSPLQLNLLQEEMPRPSESPDQMRRNTCPQTEYCVTGNNGSESSPATTGALSTGSPPRENPSHPTASALSTGSPPMKNPSHPTASALSTGSPPMKNPSHPTASTLSMGLPPSRTPSHPTATVLSTGSPPSESPSRTGSAASGSSDSSIYLTSSVYSSKISQNGQQSQDVQKKETFPNVAEEPIWRMIRQTPERILMTYQVPERVKEVVLKEDLEKLESMRQQQPQFSHGQKEELAKVYNWIQSQTVTQEIDIQACVTCENEDSADGAATSCGQVLVEDSC
With B1, the binding entry with hHNRNPK-Flag (human) [2] is “no binding”; with hPPARγ-Flag (human), “no binding”; with hHSP90AA1-Flag (human) it was “binds”.
